Measurements reported in PubChem BioAssay AID1259425 (University of Nebraska Medical Center, 2018).
The whole screen tested about 14,000 reagents; this is a random part of them. Not given: the time to read-out.

Assay: 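Compare each knockdown with KSR1 silencing using changes in marker transcripts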 (primary screen)
Cell system: HCT116 human colon cancer cells
Reagent: siRNA pool against human genes, 50 nM siRNA
Detection: 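After 50 nM siRNA pool, branched-DNA assay measures six marker transcripts per well, minus blank, normalised to the geometric mean of two housekeeping transcripts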
Direction: BNIP3L mRNA: higher = more BNIP3L transcript after knockdown; NDRG1 mRNA: higher = more NDRG1 transcript after knockdown; BNIP3 mRNA: higher = more BNIP3 transcript after knockdown; ALDOC mRNA: higher = more ALDOC transcript after knockdown; ACSL5 mRNA: higher = more ACSL5 transcript after knockdown

gene	BNIP3L mRNA, set 1	NDRG1 mRNA, set 1	BNIP3 mRNA, set 1	ALDOC mRNA, set 1	ACSL5 mRNA, set 1
AMZ2 (archaelysin family metallopeptidase 2)	0.0837	0.0754	0.347	0.0229	0.133
RDH14 (retinol dehydrogenase 14)	0.106	0.158	0.317	0.0254	0.268
FHOD3 (formin homology 2 domain containing 3)	0.174	0.105	0.296	0.0558	0.0898
MCUR1 (mitochondrial calcium uniporter regulator 1)	0.148	0.1	0.262	0.0248	0.205
PRUNE1 (prune exopolyphosphatase 1)	0.106	0.53	0.504	0.0589	0.216
NGEF (neuronal guanine nucleotide exchange factor)	0.123	0.39	0.394	0.0288	0.193
UBAP2 (ubiquitin associated protein 2)	0.11	0.0812	0.277	0.0246	0.0625
BRD2 (bromodomain containing 2)	0.159	0.242	0.28	0.00703	0.0989
MUC6 (mucin 6, oligomeric mucus/gel-forming (gene/pseudogene))	0.287	0.465	0.731	0.035	0.376
PDGFB (platelet derived growth factor subunit B)	0.0551	0.166	0.286	0.0329	0.102
TFDP2 (transcription factor Dp-2)	0.099	0.145	0.279	0.0156	0.102
MAFB (MAF bZIP transcription factor B)	0.105	0.0633	0.28	0.0102	0.295
CBR3 (carbonyl reductase 3)	0.0568	0.0806	0.275	0.0114	0.0939
GIP (gastric inhibitory polypeptide)	0.102	0.0959	0.219	0.0239	0.0456
CDC6 (cell division cycle 6)	0.0506	-0.0217	0.234	-0.0191	0.203
PFN1 (profilin 1)	0.0768	0.166	0.281	0.0297	0.121
LHCGR (luteinizing hormone/choriogonadotropin receptor)	0.116	0.0961	0.247	0.012	0.165
THAP1 (THAP domain containing 1)	0.118	0.232	0.327	0.039	0.134
PLS1 (plastin 1)	0.105	0.177	0.239	0.0218	0.107
GLA (galactosidase alpha)	0.163	0.125	0.192	0.053	0.228
FRZB (frizzled related protein)	0.0711	0.055	0.237	0.0221	0.135
RRN3 (RNA polymerase I transcription factor RRN3)	0.23	0.346	0.482	-0.0463	0.238

5 successive records already listed, quoted:
gene	BNIP3L mRNA, set 1	NDRG1 mRNA, set 1	BNIP3 mRNA, set 1	ALDOC mRNA, set 1	ACSL5 mRNA, set 1
UBAP2 (ubiquitin associated protein 2)	0.11	0.0812	0.277	0.0246	0.0625
BRD2 (bromodomain containing 2)	0.159	0.242	0.28	0.00703	0.0989
MUC6 (mucin 6, oligomeric mucus/gel-forming (gene/pseudogene))	0.287	0.465	0.731	0.035	0.376
PDGFB (platelet derived growth factor subunit B)	0.0551	0.166	0.286	0.0329	0.102
TFDP2 (transcription factor Dp-2)	0.099	0.145	0.279	0.0156	0.102

Continued.
gene	BNIP3L mRNA, set 1	NDRG1 mRNA, set 1	BNIP3 mRNA, set 1	ALDOC mRNA, set 1	ACSL5 mRNA, set 1
EXT1 (exostosin glycosyltransferase 1)	0.133	0.173	0.429	0.0131	0.215
SLC16A1	0.0763	0.208	0.386	0.0218	0.093
SNRPN (small nuclear ribonucleoprotein polypeptide N)	0.138	0.252	0.344	0.026	0.195
NDST4 (N-deacetylase and N-sulfotransferase 4)	0.0928	0.127	0.248	0.0329	0.108
HOXA7 (homeobox A7)	0.0759	0.274	0.375	0.0135	0.337
GPR176 (G protein-coupled receptor 176)	0.157	0.289	0.467	0.0542	0.289
STC2 (stanniocalcin 2)	0.138	0.319	0.268	0.0293	0.326
GRIA1 (glutamate ionotropic receptor AMPA type subunit 1)	0.0606	0.063	0.202	0.0189	0.051
FADD (Fas associated via death domain)	0.0602	0.0614	0.224	0.0272	0.0976
TMEM132A (transmembrane protein 132A)	0.0702	0.685	0.352	0.00932	0.281
NDFIP2 (Nedd4 family interacting protein 2)	0.0403	0.152	0.272	0.0341	0.116
CCR10 (C-C motif chemokine receptor 10)	0.225	0.85	0.299	0.0451	0.324
DMGDH (dimethylglycine dehydrogenase)	0.196	0.203	0.212	0.0428	0.318
NMRK1 (nicotinamide riboside kinase 1)	0.125	0.264	0.509	0.0618	0.226
NMT2 (N-myristoyltransferase 2)	0.122	0.29	0.413	0.0424	0.0843
SH3BP4 (SH3 domain binding protein 4)	0.0909	0.252	0.238	0.0184	0.197
HSFY2 (heat shock transcription factor Y-linked 2)	0.0848	0.209	0.208	0.0239	0.0832
GEMIN2 (gem nuclear organelle associated protein 2)	0.089	0.187	0.245	0.0146	0.234
SYT16 (synaptotagmin 16)	0.171	0.32	0.43	0.068	0.426
DGKD (diacylglycerol kinase delta)	0.0828	0.173	0.242	0.0164	0.193
TMEM74B (transmembrane protein 74B)	0.117	0.239	0.211	0.0327	0.146
NCSTN (nicastrin)	0.12	0.284	0.537	0.123	0.236
POU3F1 (POU class 3 homeobox 1)	0.12	0.209	0.357	0.0263	0.0757
PFN2 (profilin 2)	0.0968	0.332	0.171	0.0068	0.157
TLE4 (TLE family member 4, transcriptional corepressor)	0.1	0.109	0.285	0.056	0.144
OSBPL1A (oxysterol binding protein like 1A)	0.0678	0.0675	0.187	0.0205	0.0916
ATOX1 (antioxidant 1 copper chaperone)	0.0657	0.126	0.274	0.0187	0.137
ADSS2 (adenylosuccinate synthase 2)	0.112	0.192	0.256	0.0284	0.247
FOS (Fos proto-oncogene, AP-1 transcription factor subunit)	0.0878	0.0899	0.169	0.00228	0.166
CD52 (CD52 molecule)	0.062	0.0754	0.151	0.0452	0.0896
PTP4A3 (protein tyrosine phosphatase 4A3)	0.0712	0.123	0.341	0.0366	0.109
PSG4 (pregnancy specific beta-1-glycoprotein 4)	0.147	0.453	0.258	0.0459	0.254
MRPL11 (mitochondrial ribosomal protein L11)	0.0489	0.208	0.275	0.00778	0.133
SLC3A2	0.0812	0.42	0.308	0.0223	0.155
USP20 (ubiquitin specific peptidase 20)	0.121	0.0784	0.29	0.042	0.101
UGT1A4 (UDP glucuronosyltransferase family 1 member A4)	0.116	0.348	0.155	0.0344	0.24
FERMT1 (FERM domain containing kindlin 1)	0.259	0.573	0.75	0.0837	0.519
SLC7A6	0.167	0.122	0.228	0.0244	0.122
SLC27A6	0.0921	0.208	0.294	0.0324	0.228
MAGEA10 (MAGE family member A10)	0.0984	0.359	0.274	0.0446	0.168
C1D (C1D nuclear receptor corepressor)	0.116	0.192	0.487	0.0715	0.236
